Experimental data from PMC11509758, “New Fusarochromanone Derivatives from the Marine Fungus Fusarium equiseti UBOCC-A-117302” (Marine Drugs, 2024).

System: hTERT RPE-1 cells
Settings: read-out: EC50 (µM) RPE-1; 48 h incubation, doses up to 50 µM, MTS

CN[C@@H]1C[C@H]2O[C@@](C)([C@@H]1OC)n1c3ccccc3c3c4c(c5c6ccccc6n2c5c31)C(=O)NC4 [Staurosporine, reference compound]
EC50: 1.9 µM
